Our source for the binding values is article PMC5371832.

Sequences of proteins named here, by UniProt entry; tags and fusion partners are left off.
UniProt P0A9A6: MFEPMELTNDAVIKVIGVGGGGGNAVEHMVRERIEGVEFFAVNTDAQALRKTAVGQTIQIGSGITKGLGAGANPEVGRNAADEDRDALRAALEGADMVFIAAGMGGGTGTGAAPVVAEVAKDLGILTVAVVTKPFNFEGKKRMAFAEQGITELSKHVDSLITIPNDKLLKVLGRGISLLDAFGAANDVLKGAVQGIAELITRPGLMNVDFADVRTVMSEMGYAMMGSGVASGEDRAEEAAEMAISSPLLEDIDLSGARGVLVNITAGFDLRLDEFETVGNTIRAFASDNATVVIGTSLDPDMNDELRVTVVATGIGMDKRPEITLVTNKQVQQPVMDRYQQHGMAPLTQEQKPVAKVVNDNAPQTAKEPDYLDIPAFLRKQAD

Results are given in words; binding and its absence hold for the method and conditions named. Some entries that bind do so weakly or less than the wild type.

To fix the notation:
B1: toxin YkfI (protein, UniProt P77692 1-113)
chain: MKTLPAITQRAVKPCLSPVAVWQMLLTRLLEQHYGLTINDTPFCNEAVIKEHIDAGITLADAVNFLVEKYELVRIDRKGFSWQEQSPYLRAADILRARQATGLLRQSRNNVVR
B2: Type IV toxin CbtA (protein, UniProt P64524 1-124)
chain: MKTLPVLPGQAASSRPSPVEIWQILLSRLLDQHYGLTLNDTPFADERVIEQHIEAGISLCDAVNFLVEKYALVRTDQPGFSACTRSQLINSIDILRARRATGLMTRDNYRTVNNITLGKYPEAK
B3: toxin YpjF (protein, UniProt Q46953 1-109)
chain: MNTLPATISQAAKPCLSPVAVWQMLLTRLLEQHYGLTLNDTPFSDETVIKEHIDAGITLADAVNFLVEKYELVRIDHRGFSWQQQSPYISVVDILRARRSTGLLKTNVK

For the assay, the target named is cell division protein FtsZ (E. coli K-12) (UniProt P0A9A6). The assay can be described thus: two-hybrid.
B1: the binding result is on record as “binds”.
In the case of B2 it was “binds”; in that of B3, “binds”.
